Results published in article PMC10163288.
The list shows a part of the results.

B1: il10ra_site1_normal_mot_HHH_b1_02131_000000111_0001_1_18_H_._HHH_b1_01897_0001_0000500034_0000001_0 (protein)
chain: SSSSDQEVLELLIEAVRLLFRGNPEEARKLAEQAEEVAEELGDPRLEEAVRIVLRAIELASSSSS
B2: il10ra_site1_sap_20_mot_HHH_b1_00103_000000293_0001_1_15_H_._HHH_b2_04127_0001_0000200016_0000001_0_0001 (protein)
chain: SSSSSSSEEIEELFKLAEKAAKIDDEEEARKVLEEAAELAEELNNRVVLYSVRHLLKDLSSSSSS
B3: il10ra_site1_sap_11_mot_HHH_b1_01082_af2_000000031_0001_3_19_H_._HHH_b1_05633_0001_0000200008_0000001_0_0001 (protein)
chain: SSSSSSEEVFELIREAAELLADGNPEEAREVLEEAQRLAEEENSPNMLMNLRYLEEQVNSSSSSS
B4: il10ra_site1_sap_16_mot_HHH_b2_00092_000000181_0001_22_39_H_._750e19d4ca9b34c144e44c01c74de867_0001_af2_0001_0000300026_0000001_0_0001_af2pred_0001 (protein)
chain: SSSSDEEEVEELIKEIEELLEEGDPEKAVELIRRLVELAHELRDPELARIVRELSRLVVRISSSS
B5: il10ra_site1_normal_mot_a445c54e3280ddb545be3b99cff61ffd_0001_1_000000013_0001_36_50_H_._HHH_b1_00305_0001_0000300014_0000001_0_af2pred_0001 (protein)
chain: SSSSSSELEEHIEELVKEFGLSEEQERALRYLAKFAKEIGASEEIIERSLENAARLLRLGSSSSS
B6: il10ra_site1_sap_28_mot_HHH_b1_04940_000000219_0001_1_18_H_._HHH_b1_03345_af2_0001_0000100005_0000001_1_0001_af2pred_dldesign_0_af2pred (protein)
chain: SSSSDLGEILLERAIRALRLLGADEAVAEAEKKLALYKETKDKSLLTSTLQEAVERARELESSSS
B7: il10ra_site1_sap_7_mot_HHH_b1_02062_000000185_0001_1_20_H_._HHH_b1_06583_0001_0000100001_0000001_0_0001 (protein)
chain: SSSSDEERRRVYELSRRVAELDHEGNPEEAERVLEEAIELAEEANNRVMLAVLEHLERILRSSSS
B8: il10ra_site1_sap_20_mot_9c3e5e2d2b9ffb70dc788f52fbfab6d5_0001_1_000000198_0001_1_14_H_._HHH_b1_07345_0001_0000400032_0000003_0_0001_af2pred_0001 (protein)
chain: SSSSSEEERALRLLVKAYRLLLQGDPEEAEEVLEEALEVAEKGNDEAARKAIENLLRLLESSSSS
B9: il10ra_site1_sap_25_mot_HHH_b1_01513_af2_000000021_0001_1_16_H_._c7a8016648b91b3f39f317faa92015d4_0001_1_0002_0000100002_0000001_0_0001 (protein)
chain: SSSSSESEEILEEARKLLEELRERNDADELFRLIERAIKELLRLNDPEAARRLVEFFVHLSSSSS
B10: il10ra_site1_normal_mot_8756ee2cf497b5429c717dfc0c0bcfd6_0001_000000186_0001_1_13_H_._HHH_b2_00624_0001_0000100003_0000003_0 (protein)
chain: SSSSTEESEELYELLREAAELHHDGNPEEARELLEEAEELAREAGNDVALATIEYLLRLAGSSSS
B11: il10ra_site1_normal_mot_HHH_b1_00456_000000263_0001_1_17_H_._HHH_b2_04506_af2_0001_0000200005_0000001_0_1_af2pred_0001 (protein)
chain: SSSSSEEVEEEVRELLEKAEKITDRHEVAYLLIRAFALAAELRDEELKEEVRRVAQELADSSSSS
B12: il10ra_site1_sap_24_mot_HHH_b2_00952_af2_000000228_0001_1_18_H_._HHH_b2_04843_af2_0001_0000500014_0000001_0_0001_af2pred_0001 (protein)
chain: SSSSDKHLQQEVRALLWVAQIIDDKEAAELAVEIAEKIAEELGDEELKEEVEEVKEEIKNSSSSS
B13: il10ra_site1_normal_mot_HHH_b2_05813_000000266_0001_1_19_H_._HHH_b1_07748_0001_0000200010_0000002_0_af2pred_0001 (protein)
chain: SSSSNEEFLQILVEIQRLIDENPEYEEELRELAVRVAELLREKDREEAQKLLEEARELFEGSSSS
B14: il10ra_site1_normal_mot_HHH_b2_07569_000000265_0001_38_56_H_._HHH_b2_04128_af2_0001_0000400019_0000001_0 (protein)
chain: SSSSSDIARIAQEALRLAIRLGDQETVQEIWELVKEYFKKGDPEIEEALEELLEELKELGSSSSS
B15: il10ra_site1_sap_18_mot_HHH_b2_07413_af2_000000250_0001_42_56_H_._HHH_b2_00766_0001_0000500039_0000002_0_0001_af2pred_dldesign_0_af2pred (protein)
chain: SSAEEARAALDEAEALAKKKKDEKAIAAVRYLRELLDAAEAANNEEAIALVLRSAKTLLAILKES
B16: il10ra_site1_normal_mot_HHH_b1_00999_000000080_0001_41_55_H_._HHH_b1_04433_af2_0001_0000300038_0000001_0 (protein)
chain: SSSSDEEAEELREQAEEAAKEGDPQKALQLLQEAVRFALEESDEELLQEIWELVRKIGELKSSSS
B17: il10ra_site1_sap_15_mot_HHH_b2_04275_000000272_0001_20_36_H_._HHH_b2_06886_0001_0000100002_0000001_0_0001 (protein)
chain: SSSSDQEVFERVAEAIKEAIELLRNGNPEEAQKVIEEAIELAEEAGNRVMVWVLRWLLKRISSSS
B18: il10ra_site1_sap_8_mot_1c3c3e46dde0d4e4be3ec3dd9add6289_0001_000000096_0001_34_50_H_._HHH_b1_05516_0001_0000400033_0000002_0_0001 (protein)
chain: SSSSTSLERAWKIAREALERLQEGDEERVEELLRLLEELAEEFNNPIIEYLLEAIRRDLESSSSS
B19: il10ra_site1_sap_12_mot_HHH_b2_02315_000000136_0001_19_35_H_._HHH_b2_04721_0001_0000400033_0000001_1_0001 (protein)
chain: SSSSDEENQEVLELLREAFELALRGNPEEAEKVLERALKLAEEIGNPRAFEMIERMLRALKSSSS
B20: il10ra_site1_sap_29_mot_HHH_b2_00479_000000091_0001_1_12_H_._HHH_b1_02357_0001_0000800039_0000001_0_0001 (protein)
chain: DEELKEAIAQLLWALSRLLKDDPEKFKEVFHIAMQAYLAAQQGDEKEAEELVEELEELVRKLSSS
B21: il10ra_site1_sap_17_mot_9368472692dc9678e81f248f6367350b_0001_000000260_0001_20_35_H_._HHH_b1_01010_0001_0000500026_0000002_0_0001 (protein)
chain: SSSSDEEVRKAFELAARAMRVAHERGDAELLKELDRLAIELYREGDPRLAEELRELAEKILSSSS
B22: il10ra_site1_sap_14_mot_HHH_b1_04607_af2_000000104_0001_41_57_H_._HHH_b1_04456_0001_0000300015_0000001_0_0001 (protein)
chain: SSSSDEEYKEVKEALREAIELFKEGDPEEAEELLRELVEKLRELGNRLMVIQVEWLLELEKSSSS
B23: il10ra_site1_normal_mot_HHH_b1_05357_000000034_0001_23_39_H_._HHH_b1_01677_0002_0000100004_0000002_0_af2pred_0001 (protein)
chain: SSSSSSDEEEVERLLEEARKIEDPERVSELLTQALIIALRANNEELEEEVKEVAQELRSSSSSSS
B24: il10ra_site1_normal_mot_HHH_b1_04514_000000156_0001_1_18_H_._HHH_b2_03570_af2_0001_0000200014_0000001_0 (protein)
chain: SSSSSEEYELIKKIIEEVHRLQEEGDPEEAEELLRELAKLLEENNNLVALANVERLLRLLSSSSS

These binders were tested against il10ra, Q13651 (assay: yeast display titration).

Apparent Kd, inactive:
B1 no binding seen
B2 no binding seen
B3 no binding seen
B4 no binding seen
B5 no binding seen
B6 no binding seen
B7 no binding seen
B8 no binding seen
B9 no binding seen
B10 no binding seen
B11 no binding seen
B12 no binding seen
B13 no binding seen
B14 no binding seen
B15 no binding seen
B16 no binding seen
B17 no binding seen
B18 no binding seen
B19 no binding seen
B20 no binding seen
B21 no binding seen
B22 no binding seen
B23 no binding seen
B24 no binding seen

At a glance, some entries already given:
Apparent Kd, inactive:
B18 no binding seen
B19 no binding seen
